This assay concerns the target T1, ubiquitin-specific peptidase 37 (USP37), endogenous (human (endogenous in SGC7901 and AGS)) (UniProt Q86T82).
T1 sequence: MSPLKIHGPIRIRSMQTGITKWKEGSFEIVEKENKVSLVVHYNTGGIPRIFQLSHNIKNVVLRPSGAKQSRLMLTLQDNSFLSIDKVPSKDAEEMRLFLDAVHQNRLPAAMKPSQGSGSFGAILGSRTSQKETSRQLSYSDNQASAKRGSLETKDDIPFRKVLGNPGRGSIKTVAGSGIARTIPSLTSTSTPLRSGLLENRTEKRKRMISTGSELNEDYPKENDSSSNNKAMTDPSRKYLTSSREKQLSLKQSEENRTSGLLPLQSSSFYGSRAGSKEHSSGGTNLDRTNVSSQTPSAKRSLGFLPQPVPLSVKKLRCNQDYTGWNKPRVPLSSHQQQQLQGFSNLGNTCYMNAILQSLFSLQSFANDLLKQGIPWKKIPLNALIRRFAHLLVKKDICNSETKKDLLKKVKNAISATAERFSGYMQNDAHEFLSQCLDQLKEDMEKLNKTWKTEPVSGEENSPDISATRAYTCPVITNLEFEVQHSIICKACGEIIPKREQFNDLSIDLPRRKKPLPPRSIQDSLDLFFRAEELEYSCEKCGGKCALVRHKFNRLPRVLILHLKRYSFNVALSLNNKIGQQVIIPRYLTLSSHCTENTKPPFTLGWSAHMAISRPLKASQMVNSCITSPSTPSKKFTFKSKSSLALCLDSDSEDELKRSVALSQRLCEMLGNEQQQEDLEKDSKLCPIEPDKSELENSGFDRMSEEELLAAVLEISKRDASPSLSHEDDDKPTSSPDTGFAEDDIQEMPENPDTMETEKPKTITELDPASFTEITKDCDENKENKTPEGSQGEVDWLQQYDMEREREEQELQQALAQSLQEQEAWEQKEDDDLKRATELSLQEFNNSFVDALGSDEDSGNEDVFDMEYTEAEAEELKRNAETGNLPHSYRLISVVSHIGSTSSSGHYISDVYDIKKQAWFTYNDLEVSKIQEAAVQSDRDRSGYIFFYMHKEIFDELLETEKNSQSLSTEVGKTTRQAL
Kind of assay: co-IP; reciprocal co-immunoprecipitation and western blot of the endogenous proteins in SGC7901 and AGS cells.

Sequences of proteins named here, by UniProt entry; tags and fusion partners are left off.
UniProt O95863: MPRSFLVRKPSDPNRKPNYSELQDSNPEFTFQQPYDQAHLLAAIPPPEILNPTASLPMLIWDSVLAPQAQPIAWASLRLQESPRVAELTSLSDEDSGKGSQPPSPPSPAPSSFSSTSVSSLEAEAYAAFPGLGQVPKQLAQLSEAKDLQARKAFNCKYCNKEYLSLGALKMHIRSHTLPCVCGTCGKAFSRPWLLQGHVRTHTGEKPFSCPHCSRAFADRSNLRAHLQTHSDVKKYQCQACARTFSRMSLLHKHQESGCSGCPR

No constants are given. Whether binding was seen depends on the method and setting. Binding seen in cells or lysates may run through a third protein. Some entries that bind do so weakly or less than the wild type.

“snail family transcriptional repressor 1 (Snail1), endogenous (from UniProt O95863 1-264)”: the binding entry is reported as “binds”.

Values taken from publication PMC7738862.
